PubChem BioAssay AID1224826 – NIAID | 2016
Aim: 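Knock-downs that raise or lower Tnf reporter signal after endotoxin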 (primary screen). System: RAW264.7 G9 macrophages from mouse bearing reporters for p65 (GFP) and the Tnf promoter (mCherry). Reagent: siRNA pool against mouse genes, 100 nM. Duration: 16 h of LPS stimulation, after 2 days of siRNA transfection. Conditions: bacterial lipopolysaccharide (Salmonella minnesota R595), 10 ng/ml. Detection: 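Imaged Tnf reporter mCherry in nuclei, minus background, normalised per plate to the median and expressed as robust z-scores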. Direction: Tnf reporter robust z-score: higher = stronger Tnf promoter reporter signal after LPS; Tnf reporter intensity: higher = stronger Tnf promoter reporter signal. Active means: 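a well counts as active at a score of -1.3 or below (Tlr4 knock-down control median) or above 3 (raised signal); controls and wells holding fewer than 50 cells are excluded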. Meaning of the calls: active = Tnf reporter clearly lowered or raised; inactive = no clear change in Tnf reporter.
The whole screen tested about 17,000 reagents; shown is an unselected part. About 1,110 of all reagents (6.6%) count as active. 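Active means lowered or raised reporter signal; replicate intensities are raw and not normalised per plate.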 A reagent listed more than once was tested more than once; the source does not tell the runs apart. Not all columns of the deposit are shown.

target gene	Tnf reporter robust z-score	fewer than 50 cells in well	Tnf reporter intensity, replicate 1	activity call
Or5k8 (olfactory receptor family 5 subfamily K member 8)	-0.55	enough cells in well	151	inactive
Plxna1 (plexin A1)		fewer than 50 cells per well; well left out of calls	204	inactive
Atp6v0a1 (ATPase, H+ transporting, lysosomal V0 subunit A1)	0.69	enough cells in well	192	inactive
Lpar3 (lysophosphatidic acid receptor 3)	-0.73	enough cells in well	127	inactive
Sncb (synuclein, beta)		fewer than 50 cells per well; well left out of calls	41.8	inactive
4933405O20Rik (RIKEN cDNA 4933405O20 gene)	-0.38	enough cells in well	152	inactive
Hsh2d (hematopoietic SH2 domain containing)	-0.97	enough cells in well	137	inactive
Rarg (retinoic acid receptor, gamma)	0.43	enough cells in well	370	inactive
Ddit4 (DNA-damage-inducible transcript 4)	-0.89	enough cells in well	182	inactive
Pkhd1l1 (polycystic kidney and hepatic disease 1-like 1)	0.83	enough cells in well	189	inactive
Or4c112 (olfactory receptor family 4 subfamily C member 112)	-1.52	enough cells in well	110	active
Cnot6 (CCR4-NOT transcription complex, subunit 6)		fewer than 50 cells per well; well left out of calls	42	inactive
Pou6f1 (POU domain, class 6, transcription factor 1)	-0.98	enough cells in well	148	inactive
Mindy1 (MINDY lysine 48 deubiquitinase 1)		fewer than 50 cells per well; well left out of calls	230	inactive
Tmem230 (transmembrane protein 230)	-0.84	enough cells in well	127	inactive
Ssty1 (spermiogenesis specific transcript on the Y 1)		fewer than 50 cells per well; well left out of calls	95.4	inactive
Csn3 (casein kappa)	0.19	enough cells in well	188	inactive
Top1mt (DNA topoisomerase 1, mitochondrial)	-0.27	enough cells in well	144	inactive
Or10s1 (olfactory receptor family 10 subfamily S member 1)	-0.4	enough cells in well	122	inactive
Or52m2 (olfactory receptor family 52 subfamily M member 2)	-0.85	enough cells in well	88.5	inactive
Stk35 (serine/threonine kinase 35)	0.37	enough cells in well	194	inactive
Stk35 (serine/threonine kinase 35)	1.94	enough cells in well	348	inactive

A portion of the results above:
target gene	Tnf reporter robust z-score	fewer than 50 cells in well	Tnf reporter intensity, replicate 1	activity call
Mindy1 (MINDY lysine 48 deubiquitinase 1)		fewer than 50 cells per well; well left out of calls	230	inactive
Tmem230 (transmembrane protein 230)	-0.84	enough cells in well	127	inactive

The results go on:
target gene	Tnf reporter robust z-score	fewer than 50 cells in well	Tnf reporter intensity, replicate 1	activity call
Or5ac17 (olfactory receptor family 5 subfamily AC member 17)	2.16	enough cells in well	327	inactive
Chst4 (carbohydrate sulfotransferase 4)	-0.58	enough cells in well	127	inactive
Usp46 (ubiquitin specific peptidase 46)	0.82	enough cells in well	178	inactive
Mccc1 (methylcrotonoyl-Coenzyme A carboxylase 1 (alpha))	0.43	enough cells in well	339	inactive
Sntn (sentan, cilia apical structure protein)	0.07	enough cells in well	163	inactive
Srsf3 (serine and arginine-rich splicing factor 3)	-1.38	enough cells in well	136	active
Or5b108 (olfactory receptor family 5 subfamily B member 108)	-0.2	enough cells in well	176	inactive
Pdia6 (protein disulfide isomerase associated 6)	0.85	enough cells in well	297	inactive
Adss1 (adenylosuccinate synthase 1)	-0.96	enough cells in well	167	inactive
Phf12 (PHD finger protein 12)	0.7	enough cells in well	153	inactive
Pax7 (paired box 7)	1.32	enough cells in well	213	inactive
Susd6 (sushi domain containing 6)	0.99	enough cells in well	207	inactive
Qsox2 (quiescin Q6 sulfhydryl oxidase 2)	0.24	enough cells in well	166	inactive
Drd4 (dopamine receptor D4)	-0.04	enough cells in well	223	inactive
Arfgef2 (ARF guanine nucleotide exchange factor 2)		fewer than 50 cells per well; well left out of calls	74.9	inactive
Chml (choroideremia-like)	0.62	enough cells in well	280	inactive
Podxl (podocalyxin-like)		fewer than 50 cells per well; well left out of calls	213	inactive
Cby1 (chibby family member 1, beta catenin antagonist)	-0.29	enough cells in well	255	inactive
